Results are given in words; binding and its absence hold for the method and conditions named. Some binding calls cover weakened binding; strength is not graded here.
Biological target: α1-antitrypsin (UniProt P01009)
Assay: co-expression in HEK293, anti-V5 immunoblot of conditioned medium (covalent complex)

By UniProt entry, the sequences of proteins in these tests, tags left out. Where a name states a change or a piece, a line headed by the entry shows the natural chain unless it says otherwise. Residues count along the entry.
UniProt P01009, residues 25-418: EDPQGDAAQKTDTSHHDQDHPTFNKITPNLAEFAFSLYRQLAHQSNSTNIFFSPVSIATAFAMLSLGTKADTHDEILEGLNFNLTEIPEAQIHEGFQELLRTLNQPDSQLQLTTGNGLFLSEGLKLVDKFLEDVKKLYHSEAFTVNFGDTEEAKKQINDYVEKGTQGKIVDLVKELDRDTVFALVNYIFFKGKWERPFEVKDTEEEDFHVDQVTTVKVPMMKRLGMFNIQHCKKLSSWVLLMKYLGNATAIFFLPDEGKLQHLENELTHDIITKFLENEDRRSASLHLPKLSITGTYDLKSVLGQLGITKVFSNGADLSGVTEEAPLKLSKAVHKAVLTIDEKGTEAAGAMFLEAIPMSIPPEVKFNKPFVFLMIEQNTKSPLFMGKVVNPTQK
UniProt Q92743: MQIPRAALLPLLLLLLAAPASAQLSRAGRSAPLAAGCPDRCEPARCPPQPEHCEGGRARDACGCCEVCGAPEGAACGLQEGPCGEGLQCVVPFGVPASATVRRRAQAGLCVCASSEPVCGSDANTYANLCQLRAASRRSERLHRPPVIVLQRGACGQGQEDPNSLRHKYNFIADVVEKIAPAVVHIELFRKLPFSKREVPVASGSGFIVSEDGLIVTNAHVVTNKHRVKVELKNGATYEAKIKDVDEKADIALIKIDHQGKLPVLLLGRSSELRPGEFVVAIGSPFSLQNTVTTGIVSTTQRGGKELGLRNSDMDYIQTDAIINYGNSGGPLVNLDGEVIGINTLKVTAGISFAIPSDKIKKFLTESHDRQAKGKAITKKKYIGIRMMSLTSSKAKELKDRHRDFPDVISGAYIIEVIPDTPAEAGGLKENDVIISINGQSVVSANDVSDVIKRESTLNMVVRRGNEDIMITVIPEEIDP

| Substance | binding |
| --- | --- |
| HTRA1 R370X with a V5 tag at the C-terminus (from UniProt Q92743 23-369) (enzyme) | binds |
| wild-type HTRA1 with a V5 tag at the C-terminus (from UniProt Q92743 23-480) (enzyme) | binds |
